Assay results published in patent publication US20060029546A1, “Materials and methods for identifying anti-schizophrenic agents” (deCODE Genetics, Inc., priority 2004, published 2006).
No constants are given. Whether binding was seen depends on the method and setting. For part of these data: In cells and extracts the contact can be indirect. Some binding calls cover weakened binding; strength is not graded here.

Sequences of proteins named here, by UniProt entry; tags and fusion partners are left off. A change or cut given only in a name is not applied to a line headed by its entry.
UniProt Q15303: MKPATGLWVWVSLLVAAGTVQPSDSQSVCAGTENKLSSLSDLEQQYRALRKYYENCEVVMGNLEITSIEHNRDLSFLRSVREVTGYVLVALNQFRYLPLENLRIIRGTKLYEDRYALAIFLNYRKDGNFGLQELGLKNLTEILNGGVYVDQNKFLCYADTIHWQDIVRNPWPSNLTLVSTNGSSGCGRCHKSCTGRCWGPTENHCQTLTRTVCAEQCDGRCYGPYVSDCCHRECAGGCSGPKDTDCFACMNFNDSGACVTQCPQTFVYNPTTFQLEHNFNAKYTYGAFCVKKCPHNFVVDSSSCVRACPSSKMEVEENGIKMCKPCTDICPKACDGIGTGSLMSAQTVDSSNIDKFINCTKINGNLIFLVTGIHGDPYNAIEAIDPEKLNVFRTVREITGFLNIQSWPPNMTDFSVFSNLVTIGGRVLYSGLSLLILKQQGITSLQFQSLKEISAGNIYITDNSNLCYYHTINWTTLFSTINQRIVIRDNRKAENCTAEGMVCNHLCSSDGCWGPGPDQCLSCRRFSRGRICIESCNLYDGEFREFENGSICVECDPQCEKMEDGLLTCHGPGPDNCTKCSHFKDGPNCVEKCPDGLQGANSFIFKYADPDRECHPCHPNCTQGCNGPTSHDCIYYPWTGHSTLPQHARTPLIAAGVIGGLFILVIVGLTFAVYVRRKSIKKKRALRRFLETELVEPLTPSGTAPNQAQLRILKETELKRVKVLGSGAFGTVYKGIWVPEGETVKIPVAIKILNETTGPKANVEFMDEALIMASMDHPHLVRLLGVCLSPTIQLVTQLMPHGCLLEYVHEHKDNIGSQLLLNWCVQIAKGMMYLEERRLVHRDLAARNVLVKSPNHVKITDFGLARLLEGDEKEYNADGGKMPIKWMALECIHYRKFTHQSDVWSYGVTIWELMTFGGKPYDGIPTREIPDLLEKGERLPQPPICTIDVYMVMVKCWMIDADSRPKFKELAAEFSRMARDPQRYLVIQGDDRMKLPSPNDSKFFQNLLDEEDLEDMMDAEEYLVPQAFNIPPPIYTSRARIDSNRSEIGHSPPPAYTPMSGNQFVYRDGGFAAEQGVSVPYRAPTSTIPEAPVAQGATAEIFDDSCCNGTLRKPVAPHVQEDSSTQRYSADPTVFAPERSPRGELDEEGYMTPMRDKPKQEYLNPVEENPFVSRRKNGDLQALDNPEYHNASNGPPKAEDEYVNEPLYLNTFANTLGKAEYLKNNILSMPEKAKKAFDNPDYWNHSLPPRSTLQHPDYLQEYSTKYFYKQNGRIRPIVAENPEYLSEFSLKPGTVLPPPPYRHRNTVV
UniProt P06241: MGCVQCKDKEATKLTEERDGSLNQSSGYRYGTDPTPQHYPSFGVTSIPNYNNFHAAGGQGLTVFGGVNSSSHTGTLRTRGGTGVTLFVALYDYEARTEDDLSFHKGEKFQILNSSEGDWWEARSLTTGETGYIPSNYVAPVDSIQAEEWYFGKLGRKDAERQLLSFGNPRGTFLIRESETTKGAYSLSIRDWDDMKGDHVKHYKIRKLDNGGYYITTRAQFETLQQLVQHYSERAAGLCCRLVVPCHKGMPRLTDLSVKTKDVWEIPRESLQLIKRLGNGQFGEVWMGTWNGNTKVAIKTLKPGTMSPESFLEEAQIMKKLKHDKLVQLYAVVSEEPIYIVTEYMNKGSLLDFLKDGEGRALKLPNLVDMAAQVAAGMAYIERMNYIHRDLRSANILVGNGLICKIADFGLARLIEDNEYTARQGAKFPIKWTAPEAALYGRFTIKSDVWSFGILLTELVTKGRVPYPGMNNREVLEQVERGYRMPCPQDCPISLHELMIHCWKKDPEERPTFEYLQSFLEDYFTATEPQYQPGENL
UniProt A0JNB0: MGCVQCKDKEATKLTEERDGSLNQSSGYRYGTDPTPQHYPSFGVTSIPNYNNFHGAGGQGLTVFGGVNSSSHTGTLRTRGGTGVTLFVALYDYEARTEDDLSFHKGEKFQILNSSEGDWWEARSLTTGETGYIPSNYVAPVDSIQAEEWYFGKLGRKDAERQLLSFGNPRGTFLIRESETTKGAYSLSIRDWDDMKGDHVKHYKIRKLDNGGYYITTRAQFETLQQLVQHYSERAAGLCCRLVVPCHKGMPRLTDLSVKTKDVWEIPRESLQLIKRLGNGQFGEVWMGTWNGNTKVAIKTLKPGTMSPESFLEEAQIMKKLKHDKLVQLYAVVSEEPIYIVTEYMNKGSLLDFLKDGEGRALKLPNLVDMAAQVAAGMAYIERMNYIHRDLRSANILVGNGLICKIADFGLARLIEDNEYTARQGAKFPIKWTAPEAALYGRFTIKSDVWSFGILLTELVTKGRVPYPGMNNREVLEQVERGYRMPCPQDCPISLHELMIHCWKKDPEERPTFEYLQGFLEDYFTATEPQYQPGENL

Key:
[1] = biological target: ErbB4 (full-length, expressed in mammalian cells) (human) (UniProt Q15303); experiment: co-immunoprecipitation with α-ErbB4 antibody from HEK293 lysate after 7.2 nM NRG1
[2] = biological target: ErbB4 bait (entire cytoplasmic domain of ErbB4 cloned into vector pGBKT7) (human) (UniProt Q15303); experiment: yeast two-hybrid screen, growth assay and β-galactosidase assay
[3] = biological target: ErbB4 (full-length, expressed in mammalian cells) (human) (UniProt Q15303); experiment: co-immunoprecipitation from stably co-expressing CHO-K1 cells

Substance: Fyn tagged with a C-terminal V5-epitope (from UniProt P06241 2-537) (enzyme)
- binding [1]: binds

Substance: partial cDNA clone comprising the SH2 and SH3 domains of Fyn (amino acids 60-252) (from UniProt A0JNB0 60-252) (enzyme)
- binding [2]: binds

Substance: Fyn (co-expressed in CHO-K1 cells) (from UniProt P06241 2-537) (enzyme)
- binding [3]: binds
